For one substance, binding results are on record in article PMC10821915.

No constants are given. Whether binding was seen depends on the method and setting. Binding seen in cells or lysates may run through a third protein. Binding can be weak; no strength is given.

The assay deals with GmCRY1b-YFP (soybean (Glycine max)) (UniProt D0FZ12). The assay can be described thus: co-IP; leaves of the GmCRY1b-YFP-1 line transiently expressing 3×Flag-GmRGAa or 3×Flag-GmRGAb; dark-adapted leaves kept in the dark or exposed to blue light (50 μmol m^-2 s^-1) for 3 h; GFP-Trap agarose, 4 °C, 4 h; anti-Flag blot.

With 3×Flag-GmRGAb (from UniProt I1KRT7), the binding entry was “binds”.
